Values of other authors in PMC7961214 (Advanced Pharmaceutical Bulletin, 2020).

Details: cited from earlier work

For `COc1cc(/C=C/C(=O)CC(=O)/C=C/c2ccc(O)c(OC)c2)ccc1O` [Curcumin particles, Curcumin], the “solubility in DMSO” value (no reference given) is given as 11000 µg/mL and the solubility in water (pH 7.4 ref 12) is given as 0.4 µg/mL.
